Series [1] deals with CsGLK1 (Camellia sinensis). The series is described as follows: EMSA. The conditions noted are these: pH and temperature not stated; native PAGE, Beyotime GS009 chemiluminescent EMSA kit, 100-200x cold probe as competitor; recombinant protein; protein details: His (pET32a); label: biotin 3' end of sense strand.
Series [2] concerns CsGLK2 (Camellia sinensis). The series is described as follows: EMSA. The conditions noted are these: pH and temperature not stated; native PAGE, Beyotime GS009 chemiluminescent EMSA kit, 100-200x cold probe as competitor; recombinant protein; protein details: His (pET32a); label: biotin 3' end of sense strand. (In general: Mobility shift assays separate free from complexed probe on a gel.)

The exact form of at least one protein or probe is not confirmed. A negative result means that nothing was seen under these conditions.

With “TTAGAAGGAAACCGTGTTTCCTTACGTTTTGGAAGCAATTATATCACTGA (double strand) [CsMYB5b probe 2]”, the binding result in series [1] and in series [2] was “binds” in each case.

Take “AATAAAATTGGAACAGTGTGTGTACGTGTAACGTGTTGTAAAGCATCAAC (double strand) [CsMYB5b probe 3]”: the binding result in series [1] and in series [2] was “no binding” in each case.

As to “TAAAATTTTATATTTAGAGATCCCAAACATTATTCAATTTTGAATCAGGA (double strand) [CsMYB5b probe 1]”, the binding result in series [1] and in series [2] was “binds” in each case.
